Data as given in PubChem BioAssay AID652259 (Drosophila RNAi Screening Center, 2013).
The deposit covers about 22,000 reagents; this is an unselected part of those that have a named target and a result. Over the whole deposit, 233 (1.1%) got an active call. 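Light values are raw, unnormalised plate reads; the ratio scores behind the reporter calls were not deposited.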 Names joined by + are all predicted targets of the reagent. Not given: the amount of reagent, the time to read-out, the dose of the treatment.

Test: 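Genome-wide hunt for genes that control Wingless pathway activity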 (primary screen)
Cells: Drosophila clone 8 imaginal disc epithelial cells
Reagent: long dsRNA against Drosophila genes
Challenge: pathway stimulated by co-transfected Wingless expression plasmid
Read-out: 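Dual luciferase reads per well after Wingless plasmid stimulation: reporter firefly light and Renilla control light; activity is firefly divided by Renilla, a ratio not deposited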
Scale: firefly reporter light: higher = more Wg reporter light, before normalisation; Renilla control light: higher = more transfected or surviving cells
Active means: 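a knock-down is a candidate when at least two out of four statistical tests show it departing from its plate mean; one test alone signals a weak candidate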
Meaning of the calls: active = candidate regulator (raises or lowers reporter); inactive = not a candidate

Target gene	amplicon	reporter change call, replicate 1	firefly reporter light, replicate 1	firefly reporter light, replicate 2	Renilla control light, replicate 1	Renilla control light, replicate 2	call
CG42534	DRSC14722		3713		919		inactive
CG42534	DRSC14759		5003		1133		inactive
CG42534	DRSC16072		6855		2682		inactive
Cpr65Ay	DRSC08796		3219		2060		inactive
Rpn12R	DRSC09842		5298		2881		inactive
CG32036	DRSC10362		4834		1636		inactive
CR15280	DRSC01953		2552	5192	1296	2312	inactive
Obp58b	DRSC04161		1953	8039	637	2760	inactive
2mit	DRSC14194		13315		3844		inactive
2mit	DRSC15224		8748		2776		inactive
AOX2	DRSC15338		11587		3002		inactive
CG10317	DRSC14229		21239		4717		inactive
CG15549	DRSC15087		8768		3208		inactive
Nep2	DRSC12126		8393		2160		inactive
Nep2	DRSC21398		3.99e5	4.50e5	2.20e5	1.63e5	inactive
CG5550	DRSC06943		5009		2221		inactive
Slh	DRSC00407		3136	5482	1404	2554	inactive
Slh	DRSC00789		4269	10096	952	2370	inactive
CG30087	DRSC21677		7.81e5	7.79e5	4.09e5	3.73e5	inactive
AIMP2	DRSC09877		3256		1458		inactive
sa	DRSC11649		8870		3883		inactive
GAA1	DRSC18267		1341	5309	790	1808	inactive
Hap40	DRSC20085		1873	6480	749	2245	inactive
CG2617	DRSC02712		3751	6754	633	1826	inactive
CG18577	DRSC15352		11792		4442		inactive
CG17784	DRSC15268		18043		16134		inactive
Ost48	DRSC18693		3588	7496	1171	2614	inactive
CG13551	DRSC21847		4.59e5	4.36e5	2.04e5	2.25e5	inactive
CG8516	DRSC16437		10912		3674		inactive
Cyp309a2	DRSC00526		2649	5027	984	2665	inactive
wun	DRSC07719		11217		2851		inactive
Gp93	DRSC15827		2764	6458	1173	1381	inactive
HP1c	DRSC16166		3047	9344	1338	2512	inactive
PlexA	DRSC17220		2093	5636	800	2037	inactive
CG8854	DRSC07288		13676		2459		inactive
CG10481	DRSC02063		3053	6106	439	2923	inactive
CG9649	DRSC16534		8945		3690		inactive
CG33777	DRSC08107		4186		1914		inactive
CG4615	DRSC17491		3704		677		inactive
CG4615	DRSC18376		2778	5127	800	1744	inactive
RacGAP84C	DRSC12630		13821		3350		inactive
Nrk	DRSC07480		4658		2229		inactive
p38c	DRSC22939		5.92e5	6.34e5	2.63e5	2.02e5	inactive
CG13043	DRSC09924		5221		2880		inactive
Lcp65Ag3 + Lcp65Ag2 + Lcp65Ag1	DRSC11214		1592	6688	1074	3121	inactive
Lcp65Ag3 + Lcp65Ag2 + Lcp65Ag1	DRSC11215		1570	6616	1290	3025	inactive
spir	DRSC03619		2565	9625	517	3452	inactive
CG33341	DRSC22887		6.01e5	4.94e5	2.34e5	62139	inactive
CG33061	DRSC09938		6592		3718		inactive
CG33061	DRSC22897		4.38e5	4.30e5	1.91e5	1851	inactive
Dhdds	DRSC17756		13065		6616		inactive
Fum4	DRSC22577		7.58e5	8.12e5	3.50e5	3.25e5	inactive
CG8192	DRSC07101	Wg reporter activity raised	42266		2217		active
CG11406	DRSC04010		18954		9770		inactive
CG11406	DRSC04108		3091	9410	572	3882	inactive
ort	DRSC16240		15318		3156		inactive
CG14759	DRSC06494		2889	8337	715	2851	inactive
CG13679	DRSC10037		2616	13136	1883	5318	inactive
CG13679	DRSC22749		7.39e5	7.02e5	2.67e5	2.60e5	inactive
stops	DRSC15095		6020		2098		inactive
stops	DRSC15096		7797		3466		inactive
stops	DRSC15097		7051		3078		inactive
Ntmt	DRSC06624		4003	8656	1255	4272	inactive
CG8067	DRSC07065		11640		2979		inactive
Vps37B	DRSC12165		5014		953		inactive
CG2812	DRSC04319		2918	7677	640	1880	inactive
CG9673	DRSC20202		19895		12595		inactive
Rab19	DRSC11260		1472	10373	1056	4125	inactive
CG17819	DRSC15279		40273		8070		inactive
Lamtor1	DRSC10183		17596		5303		inactive
CG32102	DRSC22015		7.34e5	5.21e5	2.66e5	3.10e5	inactive
CG5292	DRSC15763		10931		3851		inactive
CG9497	DRSC03234		13003		5843		inactive

A portion from the list above, for reference:
Target gene	amplicon	reporter change call, replicate 1	firefly reporter light, replicate 1	firefly reporter light, replicate 2	Renilla control light, replicate 1	Renilla control light, replicate 2	call
CG9649	DRSC16534		8945		3690		inactive
CG33777	DRSC08107		4186		1914		inactive
CG4615	DRSC17491		3704		677		inactive
CG4615	DRSC18376		2778	5127	800	1744	inactive
RacGAP84C	DRSC12630		13821		3350		inactive
